Test results reported in PMC9943664.
These are yes or no findings as the source states them, for the method shown. Binding seen in cells or lysates may run through a third protein. Some entries that bind do so weakly or less than the wild type. Blank lines part the entries; values can stand above or below the molecule they belong to.

Sequences of proteins named here, by UniProt entry; tags and fusion partners are left off.
UniProt P60842: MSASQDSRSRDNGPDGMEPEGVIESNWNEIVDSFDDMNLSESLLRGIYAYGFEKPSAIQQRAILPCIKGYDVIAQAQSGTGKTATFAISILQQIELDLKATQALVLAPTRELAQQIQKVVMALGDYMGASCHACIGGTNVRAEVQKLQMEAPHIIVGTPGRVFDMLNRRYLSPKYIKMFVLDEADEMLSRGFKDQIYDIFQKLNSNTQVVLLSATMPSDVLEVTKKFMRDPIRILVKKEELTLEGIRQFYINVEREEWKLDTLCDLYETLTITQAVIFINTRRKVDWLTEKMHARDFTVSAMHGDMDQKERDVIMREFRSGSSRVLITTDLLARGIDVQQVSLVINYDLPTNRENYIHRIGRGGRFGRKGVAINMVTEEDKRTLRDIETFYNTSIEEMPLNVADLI
UniProt O00571: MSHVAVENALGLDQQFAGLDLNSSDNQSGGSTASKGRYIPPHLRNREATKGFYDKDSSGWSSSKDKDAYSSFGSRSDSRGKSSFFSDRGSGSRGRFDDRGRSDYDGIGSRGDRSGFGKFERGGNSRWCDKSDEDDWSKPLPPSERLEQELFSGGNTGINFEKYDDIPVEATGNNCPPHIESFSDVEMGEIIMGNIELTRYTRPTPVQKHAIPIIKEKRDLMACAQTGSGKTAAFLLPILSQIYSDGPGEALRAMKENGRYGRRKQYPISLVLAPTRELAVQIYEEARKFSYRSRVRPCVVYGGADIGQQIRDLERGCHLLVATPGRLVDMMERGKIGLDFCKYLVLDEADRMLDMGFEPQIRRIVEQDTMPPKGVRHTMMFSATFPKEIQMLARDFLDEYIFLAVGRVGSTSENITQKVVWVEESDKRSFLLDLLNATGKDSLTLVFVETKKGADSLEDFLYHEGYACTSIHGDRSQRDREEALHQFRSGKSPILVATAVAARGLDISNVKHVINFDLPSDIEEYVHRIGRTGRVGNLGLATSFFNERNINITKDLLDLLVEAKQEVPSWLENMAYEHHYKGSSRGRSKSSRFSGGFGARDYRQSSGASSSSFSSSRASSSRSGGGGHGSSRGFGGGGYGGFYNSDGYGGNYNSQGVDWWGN
UniProt Q13283: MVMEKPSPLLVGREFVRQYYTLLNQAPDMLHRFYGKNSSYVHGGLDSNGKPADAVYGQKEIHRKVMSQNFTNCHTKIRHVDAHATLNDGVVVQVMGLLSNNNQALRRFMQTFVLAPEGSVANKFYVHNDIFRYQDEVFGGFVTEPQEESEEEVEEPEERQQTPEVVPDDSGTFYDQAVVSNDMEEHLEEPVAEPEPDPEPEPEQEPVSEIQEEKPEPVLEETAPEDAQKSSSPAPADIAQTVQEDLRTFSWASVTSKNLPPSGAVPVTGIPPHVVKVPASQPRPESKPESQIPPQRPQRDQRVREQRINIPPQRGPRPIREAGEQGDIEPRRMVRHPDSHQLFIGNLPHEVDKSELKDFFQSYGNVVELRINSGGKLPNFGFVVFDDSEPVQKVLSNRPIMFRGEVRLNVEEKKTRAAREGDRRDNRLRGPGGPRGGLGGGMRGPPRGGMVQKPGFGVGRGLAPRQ

Legend:
[1] = molecular target: eIF4A1 (human (endogenous in HeLa)) (UniProt P60842); experiment: co-IP; immunoprecipitation of endogenous eIF4A1 (4 ug antibody on Dynabeads Protein A, 2 h at 4°C) from SG core-enriched fractions of HeLa cells exposed to As[III] (0.5 mM, 1 h; with or without recovery in fresh medium); western blotting
[2] = molecular target: DDX3X (human (endogenous in HeLa)) (UniProt O00571); experiment: co-IP; reciprocal immunoprecipitation of endogenous DDX3X (4 ug antibody on Dynabeads Protein A, 2 h at 4°C) from SG core-enriched fractions of HeLa cells acutely exposed to As[III] (0.5 mM, 1 h); western blotting

- binding [1]: binds
Molecule: G3BP1 (from UniProt Q13283 1-466)

- binding [1]: binds
- binding [2]: binds
B1: DDX1 (protein, UniProt Q92499 1-740)
chain: MAAFSEMGVMPEIAQAVEEMDWLLPTDIQAESIPLILGGGDVLMAAETGSGKTGAFSIPVIQIVYETLKDQQEGKKGKTTIKTGASVLNKWQMNPYDRGSAFAIGSDGLCCQSREVKEWHGCRATKGLMKGKHYYEVSCHDQGLCRVGWSTMQASLDLGTDKFGFGFGGTGKKSHNKQFDNYGEEFTMHDTIGCYLDIDKGHVKFSKNGKDLGLAFEIPPHMKNQALFPACVLKNAELKFNFGEEEFKFPPKDGFVALSKAPDGYIVKSQHSGNAQVTQTKFLPNAPKALIVEPSRELAEQTLNNIKQFKKYIDNPKLRELLIIGGVAARDQLSVLENGVDIVVGTPGRLDDLVSTGKLNLSQVRFLVLDEADGLLSQGYSDFINRMHNQIPQVTSDGKRLQVIVCSATLHSFDVKKLSEKIMHFPTWVDLKGEDSVPDTVHHVVVPVNPKTDRLWERLGKSHIRTDDVHAKDNTRPGANSPEMWSEAIKILKGEYAVRAIKEHKMDQAIIFCRTKIDCDNLEQYFIQQGGGPDKKGHQFSCVCLHGDRKPHERKQNLERFKKGDVRFLICTDVAARGIDIHGVPYVINVTLPDEKQNYVHRIGRVGRAERMGLAISLVATEKEKVWYHVCSSRGKGCYNTRLKEDGGCTIWYNEMQLLSEIEEHLNCTISQVEPDIKVPVDEFDGKVTYGQKRAAGGGSYKGHVDILAPTVQELAALEKEAQTSFLHLGYLPNQLFRTF
